From patent US20100190693A1
Results are given in words; binding and its absence hold for the method and conditions named. In cells and extracts the contact can be indirect. Some binding calls cover weakened binding; strength is not graded here. Where a sequence is shown, tags or fusion partners need not be part of it.

Chains of the proteins cited; added tags and fusions are not shown.
UniProt Q9H0K1: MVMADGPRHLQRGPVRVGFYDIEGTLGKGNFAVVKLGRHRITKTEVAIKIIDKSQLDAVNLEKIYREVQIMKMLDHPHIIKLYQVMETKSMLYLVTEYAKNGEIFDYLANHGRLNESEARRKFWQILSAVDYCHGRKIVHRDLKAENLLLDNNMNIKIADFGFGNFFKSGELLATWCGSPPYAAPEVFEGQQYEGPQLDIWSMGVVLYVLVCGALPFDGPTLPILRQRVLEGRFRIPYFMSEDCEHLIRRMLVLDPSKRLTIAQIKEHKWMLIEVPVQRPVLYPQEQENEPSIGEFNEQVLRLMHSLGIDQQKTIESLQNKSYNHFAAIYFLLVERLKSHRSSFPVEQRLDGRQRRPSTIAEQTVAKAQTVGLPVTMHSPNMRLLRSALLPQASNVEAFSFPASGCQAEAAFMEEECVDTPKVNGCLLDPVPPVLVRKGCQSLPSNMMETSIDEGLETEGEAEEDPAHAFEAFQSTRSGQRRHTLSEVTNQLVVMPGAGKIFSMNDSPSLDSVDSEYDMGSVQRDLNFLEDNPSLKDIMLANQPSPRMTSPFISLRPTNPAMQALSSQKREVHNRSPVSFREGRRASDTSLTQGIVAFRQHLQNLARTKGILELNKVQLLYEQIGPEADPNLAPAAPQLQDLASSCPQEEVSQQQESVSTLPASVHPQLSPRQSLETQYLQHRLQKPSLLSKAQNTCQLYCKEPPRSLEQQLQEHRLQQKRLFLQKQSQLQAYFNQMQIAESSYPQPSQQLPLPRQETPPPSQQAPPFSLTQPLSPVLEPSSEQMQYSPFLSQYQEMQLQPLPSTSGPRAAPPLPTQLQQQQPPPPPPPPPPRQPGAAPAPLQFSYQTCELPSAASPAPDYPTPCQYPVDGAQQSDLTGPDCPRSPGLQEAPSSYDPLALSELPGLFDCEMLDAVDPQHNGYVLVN

Legend:
Flag-tagged TORC2 [1] = target: T1, Flag-tagged TORC2 (UniProt Q53ET0); assay: co-immunoprecipitation, Western blot; also found by proteomic analysis of Flag-TORC2 immunoprecipitates (SIK2: 6 peptides, 11.7% coverage)
T1 sequence (phosphorylated in cells (Ser171 and other serines), looked up): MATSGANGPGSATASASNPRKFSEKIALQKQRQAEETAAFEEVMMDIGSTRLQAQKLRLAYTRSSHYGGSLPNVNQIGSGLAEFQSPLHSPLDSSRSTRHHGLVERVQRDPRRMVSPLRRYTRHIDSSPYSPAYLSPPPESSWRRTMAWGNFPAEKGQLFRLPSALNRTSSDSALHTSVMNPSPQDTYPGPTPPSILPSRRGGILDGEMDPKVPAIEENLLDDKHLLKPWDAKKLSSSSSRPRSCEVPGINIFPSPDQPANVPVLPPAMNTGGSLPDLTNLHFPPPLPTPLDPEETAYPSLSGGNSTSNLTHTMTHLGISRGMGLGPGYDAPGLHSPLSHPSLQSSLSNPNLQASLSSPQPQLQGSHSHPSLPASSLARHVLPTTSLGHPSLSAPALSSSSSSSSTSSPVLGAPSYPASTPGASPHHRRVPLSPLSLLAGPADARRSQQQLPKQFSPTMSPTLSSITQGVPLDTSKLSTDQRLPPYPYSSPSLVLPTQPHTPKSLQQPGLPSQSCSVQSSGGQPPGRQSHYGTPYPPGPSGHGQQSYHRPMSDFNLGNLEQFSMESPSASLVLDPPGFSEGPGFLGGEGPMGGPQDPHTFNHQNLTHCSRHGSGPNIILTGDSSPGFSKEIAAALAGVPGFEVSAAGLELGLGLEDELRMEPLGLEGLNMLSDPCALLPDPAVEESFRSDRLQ

Flag-tagged TORC2 [2] = target: T1, Flag-tagged TORC2; assay: co-immunoprecipitation from co-transfected HEK293T cells, Western blot (FIG. 6B)
Flag-tagged TORC2 [3] = target: T1, Flag-tagged TORC2; assay: co-immunoprecipitation and kinase assays (FIGS. 6A-6D)

Measured: binding

Salt Inducible Kinase 2 (SIK2) (from UniProt Q9H0K1 1-926) (enzyme)
binds: all assays above
